Screening data

Source: PubChem BioAssay AID1159506 (NCATS, 2015).

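Genome-wide siRNA knockdown in TC32 Ewing sarcoma cells, comparing luciferase light from an NR0B1-promoter reporter with a CMV-promoter reporter 48 hours after transfection.
Each siRNA was applied at 20 nM.
A z-score of the log NR0B1-over-CMV signal, less the median of siRNAs with the same seed; more negative means a stronger specific loss of the NR0B1 reporter.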

The strongest results of the screen are mostly left out here.
Sequences are the guide (antisense) strand, without overhang.

| Sequence | target gene | seed-corrected z-score |
|---|---|---|
| `UUCGUAGUAACCAUGCUGG` | TRAIP | -0.5594 |
| `AACAGUUACAUCUUAGUGG` | PLSCR2 | 0.6138 |
| `UGUGAGUCCUCUAUGAGGG` | LURAP1L | -0.6784 |
| `UACGGGUUCCGAGAAGUCC` | IRF2BPL | 0.4155 |
| `UUAGAAGUGAACACGGCCG` | CPLX1 | 0.05941 |
| `UUCCUUAGUCAGUUCAUUG` | CSN1S2AP | -0.1426 |
| `UUCUGUAUGAGCUGGAUCA` | NDUFAF1 | -0.483 |
| `UCAGUGAACGGCAAGUAGG` | SEPN1 | 0.8169 |
| `UAAUGCGCUCGUAUGAGUC` | SEMA4F | -0.5973 |
| `UUUCAGACAGCCGGACACC` | CHCHD6 | -0.3116 |
| `UUUCUGUACAUUCACAGGC` | VEGFC | -0.07461 |
| `UUCUCGUUCAGAGUUUCCG` | LOC728175 | -0.1927 |
| `UGACCAAACACGUACACGG` | OTUD7A | 0.01398 |
| `UGACUUAACCAAUCUCUUC` | DGAT2L7P | -0.4898 |
| `AAAGCUACCGUCACACUGC` | ZNF79 | 0.7517 |
| `AAACCUACCUUACAGGUGC` | ACTL9 | -0.8874 |
| `AACAUGUUGCUGGUAAUCU` | PRSS1 | -0.6386 |
| `UCAUGAACAAUCCCGAACG` | OVOS2 | -0.3563 |
| `UCAUCUACAAGGCUGUCUU` | TMX4 | 1.23 |
| `UGAAGACCACGCAUGCUCC` | SLC50A1 | 0.1242 |
| `ACUGGUACUAGGUAACUCC` | SFI1 | 1.825 |
| `UAGGACAACAUGAUCACUG` | SPDYE7P | -0.3655 |
| `UAUUAGUCUCCAGUAGGUC` | TGS1 | 0.1033 |
| `UCUAGUCUCAUUAGAGCCC` | LRPPRC | 0.05766 |
| `UAUAAUACCACUCUUAUAA` | OCLM | 0.8622 |
| `UUGUUGUGCAGGAAAAGGG` | PLOD3 | 0.8941 |
| `UGUCUUUGCACUGUAAGCU` | MAPK8IP1 | -0.391 |
| `UAGCAUUCUGAGUAGUAUC` | PSMA6P2 | -0.2782 |
| `UAUGGUACUGACGACAAUG` | FZD6 | 0.3806 |
| `UUUGGUCACCGUCUGCUCC` | CIB3 | -0.9649 |
| `UUGUAGGACACGGAGAGGG` | SLC6A17 | -0.5208 |
| `UUGUCAUCUUCUGCGAAUC` | FAM21EP | 0.08169 |
| `ACUAUCAUAAGUUCCGGUG` | RIF1 | -0.2758 |
| `UCUUUAACAUCUAUGGUGC` | CETN2 | -0.1951 |
| `AGUUUUCACAACCUCGCUC` | HIST1H2AH | 0.1619 |
| `UCGCUUACAAGCACUGGUG` | EOMES | -1.349 |
| `UCAAUCACAAAUACGGUGC` | CDH24 | 0.57 |
| `UACCUGACCAGAUAGUGUC` | NCAM1 | -0.1943 |
| `UACACUCUCAGACAGAAUC` | PRRT2 | -0.1258 |
| `UCUUGUCUUGGUGCUGUCC` | SPRY1 | 0.1753 |
| `UUCAUAGCCUUUGCUCUGG` | ZNF350 | -0.3085 |
| `UAUACUUGUACAGUGAGGC` | FMO1 | -0.7865 |
| `AUUACCCUCAAGUUGCUCC` | NTF4 | 0.1643 |
| `UCCGAGAUAAGGAACUUGA` | CAND2 | 0.05664 |
| `ACCGUAGUUAGAAGGUUGC` | HNRNPA2B1 | -0.4475 |
| `UUAUAGAAGCCGAUUCUCA` | TMEM140 | 1.05 |
| `UUUAGUAAUUCUCUGCACC` | C2orf42 | -0.3568 |
| `UUCUUGAUCUGGGCAUGGG` | MAN2C1 | -0.6692 |
| `UACUUCCGACUCAUUAUCC` | CNTN4 | 0.5474 |
| `UAUUAUAAUAAGACUCUGC` | ZNRD1-AS1 | 0.8521 |
| `AAUCCGAUGAACUUGUUCC` | STRIP2 | 0.1563 |
| `AUCACUUUUAUUGCCCACC` | DIRAS3 | -1.893 |
| `UAAUGGUCUGGUCAAAACC` | LSM8 | -0.3309 |
| `AGAUCUGUGAGGAAAGUAC` | KIAA0355 | -1.985 |
| `UUCAGGUAAGUCUAGGUCU` | SPANXN1 | 0.5047 |
| `UUUGGUACCUCUUGCAUCU` | SPANXN3 | -1.1 |
| `AUAUUCAUCUGACACCAUG` | RPL10P9 | -0.8585 |
| `UUCUUGUUCACGAUGUAGG` | EMILIN2 | -0.08246 |
| `UUUGAGACGAGGUACUUUC` | TMEM167B | 0.1223 |
| `UAGUGUAUGAUACCAAGCC` | LRAT | 0.4731 |
| `UACUUGUCCAUGACAGGCG` | BEND5 | -0.284 |
| `AAUGUAUCUACCGUCAGGG` | TRPM7 | -1.213 |
| `AUAGUCAUAGUAGAACGGG` | FXYD2 | 0.5957 |
| `UCUUUGAUGACUCAACUUC` | SRFBP1 | 0.5559 |
| `UAGGCGCAGAGUCUUGAUC` | HAND1 | -0.2961 |
| `ACCAGGAACACAUUGCAGC` | PITPNC1 | 0.6255 |
| `UUACUGAAUAAUCUUGCUG` | TMCO5A | -0.2939 |
| `AAUUGACCAGGUCUUGUGC` | KLHL31 | 0.5452 |
| `UUCGGACAUACAAUGACAC` | KIN | 0.6758 |
| `UUGCUAAACAGGGAGGUCA` | OR2T12 | -0.4076 |
| `UAUGCGUAGAAUUCAGGCC` | LETMD1 | 1.528 |
| `AUAAGUCCCAGUGUGGUCC` | SEL1L2 | 0.03676 |
| `UUCUCGUUGAGCUUGUCUC` | NOP14 | -0.1663 |
| `UUUGACUCAACCUGUACUG` | LRRFIP1 | 0.3383 |
| `UAUGCUAUCUGUCUAUUCU` | LOC643623 | 0.2383 |
| `UUUGCUAUUGUUGUCCUCC` | TMEM63A | -0.06787 |
| `ACUUACAUAGUUAAAAUGC` | SEC22C | -0.1824 |

8 of the entries, repeated:

Result for UACCUGACCAGAUAGUGUC against NCAM1 was seed-corrected z-score -0.1943.
Result for UAGUGUAUGAUACCAAGCC against LRAT was seed-corrected z-score 0.4731.
Result for UAAUGCGCUCGUAUGAGUC against SEMA4F was seed-corrected z-score -0.5973.
Result for AAUCCGAUGAACUUGUUCC against STRIP2 was seed-corrected z-score 0.1563.
Result for AAUUGACCAGGUCUUGUGC against KLHL31 was seed-corrected z-score 0.5452.
Result for UUCUUGUUCACGAUGUAGG against EMILIN2 was seed-corrected z-score -0.08246.
Result for AUAUUCAUCUGACACCAUG against RPL10P9 was seed-corrected z-score -0.8585.
Result for UUCCUUAGUCAGUUCAUUG against CSN1S2AP was seed-corrected z-score -0.1426.